Measurements reported in the supplement of paper PMC7666118.
This is one part of the list.

Amino acid sequences for entries named in this document (tags omitted). A change or cut given only in a name is not applied to a line headed by its entry.
UniProt P98194: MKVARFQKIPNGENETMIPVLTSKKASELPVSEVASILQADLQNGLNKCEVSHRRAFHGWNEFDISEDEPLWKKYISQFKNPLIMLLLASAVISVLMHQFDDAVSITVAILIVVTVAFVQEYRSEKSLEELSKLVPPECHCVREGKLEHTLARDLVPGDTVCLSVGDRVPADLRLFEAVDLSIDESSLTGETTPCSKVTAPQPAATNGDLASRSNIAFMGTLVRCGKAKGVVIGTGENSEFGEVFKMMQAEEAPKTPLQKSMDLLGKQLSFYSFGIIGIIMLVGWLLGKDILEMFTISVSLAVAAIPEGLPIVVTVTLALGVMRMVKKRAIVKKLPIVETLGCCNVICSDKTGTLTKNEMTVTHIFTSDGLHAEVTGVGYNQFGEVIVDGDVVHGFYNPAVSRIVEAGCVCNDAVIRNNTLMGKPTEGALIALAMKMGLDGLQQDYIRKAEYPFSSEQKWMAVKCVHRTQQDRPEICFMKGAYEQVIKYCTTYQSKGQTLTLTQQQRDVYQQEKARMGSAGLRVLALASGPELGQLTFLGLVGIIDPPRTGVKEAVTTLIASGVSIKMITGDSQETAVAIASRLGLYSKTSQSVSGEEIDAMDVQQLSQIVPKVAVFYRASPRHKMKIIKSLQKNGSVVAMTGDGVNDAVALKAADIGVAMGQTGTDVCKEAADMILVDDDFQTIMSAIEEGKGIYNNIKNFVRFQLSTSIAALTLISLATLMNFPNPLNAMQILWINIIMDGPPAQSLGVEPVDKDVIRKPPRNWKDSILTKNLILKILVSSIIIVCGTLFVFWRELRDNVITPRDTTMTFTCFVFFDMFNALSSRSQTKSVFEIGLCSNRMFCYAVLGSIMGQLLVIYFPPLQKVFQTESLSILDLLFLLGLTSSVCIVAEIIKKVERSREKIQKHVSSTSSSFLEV
UniProt Q8N8R7: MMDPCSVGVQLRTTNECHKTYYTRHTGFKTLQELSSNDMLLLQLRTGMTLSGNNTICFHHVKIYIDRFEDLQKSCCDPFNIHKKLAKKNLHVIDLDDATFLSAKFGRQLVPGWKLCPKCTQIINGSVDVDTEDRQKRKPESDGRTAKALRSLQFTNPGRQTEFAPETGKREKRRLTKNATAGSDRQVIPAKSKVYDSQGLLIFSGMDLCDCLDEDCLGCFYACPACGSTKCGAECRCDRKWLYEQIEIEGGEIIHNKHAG
UniProt O95870: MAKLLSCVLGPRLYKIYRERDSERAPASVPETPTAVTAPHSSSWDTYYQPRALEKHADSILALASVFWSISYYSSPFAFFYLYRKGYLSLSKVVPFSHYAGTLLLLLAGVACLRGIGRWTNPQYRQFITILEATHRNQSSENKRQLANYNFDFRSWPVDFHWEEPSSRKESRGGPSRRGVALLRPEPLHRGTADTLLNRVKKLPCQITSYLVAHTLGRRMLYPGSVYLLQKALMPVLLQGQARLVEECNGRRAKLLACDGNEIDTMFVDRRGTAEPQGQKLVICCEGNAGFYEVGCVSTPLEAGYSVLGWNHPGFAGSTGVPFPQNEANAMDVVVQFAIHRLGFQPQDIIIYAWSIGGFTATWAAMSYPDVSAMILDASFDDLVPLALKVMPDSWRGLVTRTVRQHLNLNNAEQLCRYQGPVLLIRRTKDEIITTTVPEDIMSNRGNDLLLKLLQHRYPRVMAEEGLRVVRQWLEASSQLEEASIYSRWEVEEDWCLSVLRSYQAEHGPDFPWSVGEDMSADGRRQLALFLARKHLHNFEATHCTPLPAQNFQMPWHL
UniProt P18859: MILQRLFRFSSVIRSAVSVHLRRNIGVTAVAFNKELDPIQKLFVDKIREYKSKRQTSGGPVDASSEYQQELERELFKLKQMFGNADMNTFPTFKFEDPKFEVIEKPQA
UniProt O95429: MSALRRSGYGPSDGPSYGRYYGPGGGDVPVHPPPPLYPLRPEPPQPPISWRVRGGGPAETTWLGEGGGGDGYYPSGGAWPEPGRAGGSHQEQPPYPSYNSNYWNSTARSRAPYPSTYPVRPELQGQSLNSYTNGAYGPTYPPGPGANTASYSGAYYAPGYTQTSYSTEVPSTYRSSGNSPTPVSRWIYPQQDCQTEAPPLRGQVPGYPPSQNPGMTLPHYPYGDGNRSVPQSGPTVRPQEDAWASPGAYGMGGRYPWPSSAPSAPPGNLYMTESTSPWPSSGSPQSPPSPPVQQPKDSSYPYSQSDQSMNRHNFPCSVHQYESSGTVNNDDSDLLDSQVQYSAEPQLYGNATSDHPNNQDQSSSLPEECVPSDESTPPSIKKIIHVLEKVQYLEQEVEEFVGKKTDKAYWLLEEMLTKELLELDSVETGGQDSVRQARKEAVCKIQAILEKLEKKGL
UniProt P51572: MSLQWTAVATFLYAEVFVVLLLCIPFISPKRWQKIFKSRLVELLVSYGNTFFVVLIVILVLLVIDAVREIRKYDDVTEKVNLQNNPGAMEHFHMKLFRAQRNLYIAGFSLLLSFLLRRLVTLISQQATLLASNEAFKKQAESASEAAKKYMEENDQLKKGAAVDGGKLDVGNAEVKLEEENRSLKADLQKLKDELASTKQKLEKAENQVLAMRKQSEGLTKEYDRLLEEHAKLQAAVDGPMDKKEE
UniProt Q5W111: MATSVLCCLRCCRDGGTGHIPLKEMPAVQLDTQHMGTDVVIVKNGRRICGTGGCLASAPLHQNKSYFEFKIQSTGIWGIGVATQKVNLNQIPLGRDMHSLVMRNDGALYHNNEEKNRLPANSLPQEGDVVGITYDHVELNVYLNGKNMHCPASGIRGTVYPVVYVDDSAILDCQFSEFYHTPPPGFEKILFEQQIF
UniProt Q8IZQ5, whole entry: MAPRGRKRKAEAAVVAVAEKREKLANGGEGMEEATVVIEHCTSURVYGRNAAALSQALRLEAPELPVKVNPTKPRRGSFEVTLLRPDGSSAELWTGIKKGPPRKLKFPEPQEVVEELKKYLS
UniProt O60512: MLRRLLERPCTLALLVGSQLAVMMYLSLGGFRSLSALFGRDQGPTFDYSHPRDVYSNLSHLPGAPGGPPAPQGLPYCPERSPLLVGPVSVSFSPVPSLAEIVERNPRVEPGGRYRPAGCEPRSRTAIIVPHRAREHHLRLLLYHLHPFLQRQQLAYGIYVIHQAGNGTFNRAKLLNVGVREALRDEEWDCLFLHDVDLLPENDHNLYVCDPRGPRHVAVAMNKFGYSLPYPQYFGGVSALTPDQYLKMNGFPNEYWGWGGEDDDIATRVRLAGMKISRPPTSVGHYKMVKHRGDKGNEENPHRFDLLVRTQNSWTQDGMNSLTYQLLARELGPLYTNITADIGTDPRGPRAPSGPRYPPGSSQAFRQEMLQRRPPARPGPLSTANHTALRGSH
UniProt O95260: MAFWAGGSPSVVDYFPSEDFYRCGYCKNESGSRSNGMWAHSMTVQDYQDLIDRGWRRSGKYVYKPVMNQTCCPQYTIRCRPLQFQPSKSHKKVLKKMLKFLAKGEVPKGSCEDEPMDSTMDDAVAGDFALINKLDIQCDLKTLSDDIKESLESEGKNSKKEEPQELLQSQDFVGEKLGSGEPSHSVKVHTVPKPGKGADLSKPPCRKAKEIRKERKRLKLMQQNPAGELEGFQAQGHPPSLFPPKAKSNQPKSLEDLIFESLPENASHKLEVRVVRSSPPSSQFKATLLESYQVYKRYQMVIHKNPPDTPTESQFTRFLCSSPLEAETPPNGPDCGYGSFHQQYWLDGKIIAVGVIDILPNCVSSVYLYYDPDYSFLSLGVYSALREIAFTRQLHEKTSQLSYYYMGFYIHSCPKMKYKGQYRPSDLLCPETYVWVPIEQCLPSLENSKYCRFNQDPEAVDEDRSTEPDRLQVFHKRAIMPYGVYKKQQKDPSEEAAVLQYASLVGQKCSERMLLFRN
UniProt Q8N3C0, whole entry: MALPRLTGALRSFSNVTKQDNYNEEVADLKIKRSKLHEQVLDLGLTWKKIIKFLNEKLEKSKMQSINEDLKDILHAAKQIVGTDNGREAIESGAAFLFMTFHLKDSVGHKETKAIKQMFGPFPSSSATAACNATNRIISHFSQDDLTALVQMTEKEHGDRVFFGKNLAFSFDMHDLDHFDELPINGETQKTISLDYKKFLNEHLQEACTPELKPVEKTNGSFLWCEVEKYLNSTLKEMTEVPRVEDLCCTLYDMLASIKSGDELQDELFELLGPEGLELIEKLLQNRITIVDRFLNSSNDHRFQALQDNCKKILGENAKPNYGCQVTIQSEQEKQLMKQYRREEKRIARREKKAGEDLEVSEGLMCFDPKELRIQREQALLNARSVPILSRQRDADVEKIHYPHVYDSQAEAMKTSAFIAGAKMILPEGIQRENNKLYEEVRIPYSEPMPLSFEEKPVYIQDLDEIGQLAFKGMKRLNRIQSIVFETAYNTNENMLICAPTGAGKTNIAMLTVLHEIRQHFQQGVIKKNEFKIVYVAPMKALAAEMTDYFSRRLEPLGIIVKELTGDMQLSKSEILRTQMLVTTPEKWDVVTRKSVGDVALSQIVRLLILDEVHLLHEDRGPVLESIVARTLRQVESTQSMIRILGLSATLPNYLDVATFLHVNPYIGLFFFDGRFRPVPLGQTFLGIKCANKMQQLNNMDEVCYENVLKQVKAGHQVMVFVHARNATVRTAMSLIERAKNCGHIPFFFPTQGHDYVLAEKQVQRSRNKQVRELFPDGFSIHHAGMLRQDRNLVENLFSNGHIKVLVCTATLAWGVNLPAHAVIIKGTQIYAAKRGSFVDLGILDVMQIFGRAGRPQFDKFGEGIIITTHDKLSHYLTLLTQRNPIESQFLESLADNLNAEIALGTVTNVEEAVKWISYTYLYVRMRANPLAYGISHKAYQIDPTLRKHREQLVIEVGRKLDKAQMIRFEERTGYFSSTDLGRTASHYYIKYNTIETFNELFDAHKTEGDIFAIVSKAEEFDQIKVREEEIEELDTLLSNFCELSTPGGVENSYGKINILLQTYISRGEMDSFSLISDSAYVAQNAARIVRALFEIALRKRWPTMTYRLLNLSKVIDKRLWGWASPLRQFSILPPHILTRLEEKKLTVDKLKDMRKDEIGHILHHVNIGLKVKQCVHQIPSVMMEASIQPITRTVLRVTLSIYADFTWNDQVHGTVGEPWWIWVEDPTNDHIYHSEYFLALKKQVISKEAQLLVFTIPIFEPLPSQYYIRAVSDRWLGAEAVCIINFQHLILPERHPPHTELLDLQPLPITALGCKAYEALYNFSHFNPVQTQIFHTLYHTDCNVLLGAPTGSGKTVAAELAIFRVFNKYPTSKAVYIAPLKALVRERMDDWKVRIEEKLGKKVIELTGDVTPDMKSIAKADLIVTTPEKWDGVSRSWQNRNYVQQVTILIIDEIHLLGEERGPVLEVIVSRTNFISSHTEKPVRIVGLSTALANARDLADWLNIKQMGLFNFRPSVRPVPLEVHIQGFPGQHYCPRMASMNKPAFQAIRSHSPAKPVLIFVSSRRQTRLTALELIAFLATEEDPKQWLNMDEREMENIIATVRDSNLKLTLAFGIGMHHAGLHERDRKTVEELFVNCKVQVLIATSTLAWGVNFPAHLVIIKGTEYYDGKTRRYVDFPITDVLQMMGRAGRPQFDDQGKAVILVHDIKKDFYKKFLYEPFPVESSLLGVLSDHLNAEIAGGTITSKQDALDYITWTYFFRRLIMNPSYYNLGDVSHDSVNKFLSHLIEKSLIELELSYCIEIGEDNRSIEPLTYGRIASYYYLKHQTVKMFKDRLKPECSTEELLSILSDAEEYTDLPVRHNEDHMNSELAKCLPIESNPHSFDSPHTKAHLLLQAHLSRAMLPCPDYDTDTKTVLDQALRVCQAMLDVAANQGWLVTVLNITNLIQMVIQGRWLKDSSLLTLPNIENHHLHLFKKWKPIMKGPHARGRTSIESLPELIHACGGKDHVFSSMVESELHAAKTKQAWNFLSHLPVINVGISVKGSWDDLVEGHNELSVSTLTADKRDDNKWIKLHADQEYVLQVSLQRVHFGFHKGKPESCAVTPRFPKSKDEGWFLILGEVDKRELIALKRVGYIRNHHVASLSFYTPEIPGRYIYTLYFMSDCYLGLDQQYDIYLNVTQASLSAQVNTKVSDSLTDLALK

Each target was assayed with COc1ccc(Cn2ccc3ccc(C(=O)NO)cc32)cc1 (assay: dose-dependent thermal stabilisation call (2D-TPP, DLPTP, 10% FDR) (binary (1 = stabilised)); higher = stabilised by the compound). Details: system: HL-60 intact cells; concentration range 0.04-10 µM.

Target | dose-dependent thermal stabilisation call
ATP2C1 (UniProt P98194) | inactive: 0
C11ORF46 (UniProt Q8N8R7) | inactive: 0
BAT5 (UniProt O95870) | inactive: 0
ATP5J (UniProt P18859) | inactive: 0
BAG4 (UniProt O95429) | inactive: 0
BCAP31 (UniProt P51572) | inactive: 0
ATG2A (UniProt Q2TAZ0) | inactive: 0
C13ORF1 (UniProt Q5W111) | inactive: 0
C11ORF31 (UniProt Q8IZQ5) | inactive: 0
B4GALT3 (UniProt O60512) | inactive: 0
ATE1 (UniProt O95260) | inactive: 0
ASCC3 (UniProt Q8N3C0) | inactive: 0

Two neighbouring records from above:
Target | dose-dependent thermal stabilisation call
BCAP31 (UniProt P51572) | inactive: 0
ATG2A (UniProt Q2TAZ0) | inactive: 0
